Laboratory results taken from US20180343839A1.
Results are given in words; binding and its absence hold for the method and conditions named. For some of these results: Binding seen in cells or lysates may run through a third protein. Some entries that bind do so weakly or less than the wild type.

Amino acid sequences for entries named in this document (tags omitted). A change or cut given only in a name is not applied to a line headed by its entry.
UniProt Q9UKT9: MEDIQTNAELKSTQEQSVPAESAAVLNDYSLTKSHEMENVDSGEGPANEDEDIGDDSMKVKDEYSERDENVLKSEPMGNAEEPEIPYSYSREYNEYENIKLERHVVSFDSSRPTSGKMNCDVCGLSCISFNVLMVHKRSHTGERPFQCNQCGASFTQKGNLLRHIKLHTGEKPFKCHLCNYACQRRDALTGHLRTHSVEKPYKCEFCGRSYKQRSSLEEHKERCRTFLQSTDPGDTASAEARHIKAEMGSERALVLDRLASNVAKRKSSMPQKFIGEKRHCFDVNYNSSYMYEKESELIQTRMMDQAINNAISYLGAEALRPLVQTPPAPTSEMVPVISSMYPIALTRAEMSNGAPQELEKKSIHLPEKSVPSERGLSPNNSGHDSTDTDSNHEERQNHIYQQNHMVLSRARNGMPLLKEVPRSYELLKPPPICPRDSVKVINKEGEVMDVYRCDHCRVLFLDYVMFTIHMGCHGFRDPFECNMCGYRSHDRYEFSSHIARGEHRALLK
UniProt Q96SW2: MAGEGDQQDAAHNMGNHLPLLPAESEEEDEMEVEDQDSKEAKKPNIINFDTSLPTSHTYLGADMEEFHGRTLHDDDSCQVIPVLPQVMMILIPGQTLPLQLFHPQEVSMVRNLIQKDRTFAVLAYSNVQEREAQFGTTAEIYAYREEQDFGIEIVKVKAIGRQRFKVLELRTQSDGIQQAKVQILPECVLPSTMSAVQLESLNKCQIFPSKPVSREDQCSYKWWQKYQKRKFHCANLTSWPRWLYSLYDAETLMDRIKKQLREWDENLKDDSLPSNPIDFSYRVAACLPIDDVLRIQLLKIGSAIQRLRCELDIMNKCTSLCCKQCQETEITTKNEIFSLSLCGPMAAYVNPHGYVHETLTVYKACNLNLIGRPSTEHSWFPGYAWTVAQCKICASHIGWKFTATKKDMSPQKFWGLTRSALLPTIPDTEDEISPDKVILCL

What was measured:
HA-IKZF3 (human) [1] = target: HA-IKZF3 (human) (UniProt Q9UKT9); experiment: anti-FLAG immunoprecipitation from 293T cells (legend of FIG. 9B)
HA-IKZF3 (human) [2] = target: HA-IKZF3 (human) (UniProt Q9UKT9); experiment: anti-FLAG immunoprecipitation from co-transfected 293T cells; lenalidomide added to the lysate
[3] = target: T1, casein kinase 1A1 (CSNK1A1) (human) (UniProt P48729); experiment: co-immunoprecipitation from 293T cells, western blot
T1 sequence: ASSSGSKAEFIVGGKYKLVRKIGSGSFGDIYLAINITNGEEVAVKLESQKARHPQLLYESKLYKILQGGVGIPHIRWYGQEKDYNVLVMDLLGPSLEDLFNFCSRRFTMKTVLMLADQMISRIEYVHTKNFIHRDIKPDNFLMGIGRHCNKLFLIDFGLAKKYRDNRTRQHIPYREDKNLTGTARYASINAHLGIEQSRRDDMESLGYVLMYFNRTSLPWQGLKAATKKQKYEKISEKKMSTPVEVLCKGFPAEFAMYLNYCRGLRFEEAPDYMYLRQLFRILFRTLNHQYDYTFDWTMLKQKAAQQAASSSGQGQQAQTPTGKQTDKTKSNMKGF

Aiolos (IKZF3) (human) [4] = target: Aiolos (IKZF3) (human) (UniProt Q9UKT9); experiment: co-immunoprecipitation with HA-CRBN, western blot, with and without lenalidomide
[5] = target: FLAG-IKZF3 (wildtype) (human) (UniProt Q9UKT9); experiment: co-immunoprecipitation of FLAG-IKZF3 by HA-CRBN from 293T cells, 1 µM lenalidomide
Aiolos (IKZF3) (human) [6] = target: Aiolos (IKZF3) (human) (UniProt Q9UKT9); experiment: HA-CRBN immunoprecipitation from MM1S lysate, SILAC quantitative MS, 1 µM lenalidomide
[7] = target: FLAG-IKZF3 (wildtype) (human) (UniProt Q9UKT9); experiment: HA immunoprecipitation from transfected 293T cells, 1 µM lenalidomide for 1 hour (legend of FIG. 11C)

Measured: binding

FLAG-CRBN (FLAG-tagged human CRBN) (from UniProt Q96SW2 1-442)
binds: HA-IKZF3 (human) [1] | HA-IKZF3 (human) [2]

HA-CRBN (hemagglutinin (HA)-tagged human CRBN) (from UniProt Q96SW2 1-442)
not listed: HA-IKZF3 (human) [1] | HA-IKZF3 (human) [2]
binds: all other assays above
